In assay [1] the target is cyclin-dependent kinase inhibitor 1B (CDKN1B or P27KIP1) (human (endogenous in MDA-MB-231)) (UniProt P46527). The experiment in a line: co-IP; lysosomal extracts of MDA-MB-231 cells transfected with the indicated constructs; IP of P27KIP1, immunoblotting against P27KIP1, TRIM21 and LAMTOR1.
In assay [2] the target is T1, Flag-tagged hSPAR (human small regulatory polypeptide of amino acid response) (human).
T1 sequence: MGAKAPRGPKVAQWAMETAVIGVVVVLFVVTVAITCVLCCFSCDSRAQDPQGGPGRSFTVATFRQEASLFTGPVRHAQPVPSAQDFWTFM
In words: co-IP; MDA-MB-231 cells transfected with Vector Ctrl, ΔATG1+2, Flag-hSPAR or Flag-hSPAR-C; IP lysis buffer (20 mM Tris-HCl pH 8.0, 137 mM NaCl, 1% Nonidet P-40, 2 mM EDTA); IP with antibodies to TRIM21, Flag, P27KIP1 or LAMTOR1 overnight at 4 °C, protein A/G agarose; immunoblotting.

Sequences of proteins named here, by UniProt entry; tags and fusion partners are left off.
UniProt P46527: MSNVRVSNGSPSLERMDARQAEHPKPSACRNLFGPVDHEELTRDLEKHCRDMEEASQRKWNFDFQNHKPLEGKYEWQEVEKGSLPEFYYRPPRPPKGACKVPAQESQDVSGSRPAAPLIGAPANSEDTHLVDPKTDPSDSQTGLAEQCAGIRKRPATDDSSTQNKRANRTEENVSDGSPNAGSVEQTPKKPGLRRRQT
UniProt Q6IAA8: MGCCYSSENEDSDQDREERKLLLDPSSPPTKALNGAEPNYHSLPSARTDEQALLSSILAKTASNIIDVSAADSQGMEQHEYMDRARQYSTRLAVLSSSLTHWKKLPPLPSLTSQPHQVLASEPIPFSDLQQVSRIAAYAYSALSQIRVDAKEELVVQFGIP
UniProt P19474: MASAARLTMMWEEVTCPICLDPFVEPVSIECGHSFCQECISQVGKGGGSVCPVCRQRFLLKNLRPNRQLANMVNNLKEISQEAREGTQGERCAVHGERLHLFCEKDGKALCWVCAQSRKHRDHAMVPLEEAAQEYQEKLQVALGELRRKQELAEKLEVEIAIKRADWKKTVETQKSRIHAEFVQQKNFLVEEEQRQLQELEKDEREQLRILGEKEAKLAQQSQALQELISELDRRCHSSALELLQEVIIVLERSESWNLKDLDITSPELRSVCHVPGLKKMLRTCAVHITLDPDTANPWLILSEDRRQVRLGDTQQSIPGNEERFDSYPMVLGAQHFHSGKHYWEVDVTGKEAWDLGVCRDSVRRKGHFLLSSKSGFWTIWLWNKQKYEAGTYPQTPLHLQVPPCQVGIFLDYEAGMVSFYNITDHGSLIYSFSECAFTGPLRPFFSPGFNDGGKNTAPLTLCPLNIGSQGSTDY

The target of assay [3] is LAMTOR1 (human (endogenous in MDA-MB-231)) (UniProt Q6IAA8). The assay is described as above.
The target in assay [4] is Tripartite motif-containing 21 (TRIM21) (human (endogenous in MDA-MB-231)) (UniProt P19474). Described as above.

This is an account of results in PMC11876615.

No constants are given. Whether binding was seen depends on the method and setting. In cells and extracts the contact can be indirect. Some results given as binding are weak or reduced against the parent protein; the word gives no strength. For some of these results: Tags and fused reporters may be left off the sequences shown.

Turning to “Tripartite motif-containing 21 (TRIM21) (from UniProt P19474 1-475)”, the figures for the binding entry in assay [1] and in assay [2] were “no binding (condition: lysosomal extracts)” and “binds”, respectively.
As for “cyclin-dependent kinase inhibitor 1B (CDKN1B or P27KIP1) (from UniProt P46527 1-198)”, the binding result in assay [3] and in assay [4] was “binds” each time.
